Test results taken from PubChem BioAssay AID720533 (National Center for Advancing Translational Sciences (NCATS), 2013).
Only a part is listed here, and it is no random draw. Inconclusive results are not listed. The source made the active and inactive calls. Calls come from the whole dose curve; tested in HEK293 cells.
% is set by controls: 0 for no effect and ±100 for the full control effect; potency is the fitted concentration of half-maximal effect.

Assay: qHTS for Inhibitors of binding or entry into cells for Lassa Virus
Conditions: Lassa virus pseudotyped entry inhibition, cell-based qHTS; series mostly up to 49.2 µM; activity change, negative = inhibition: at the top concentration
For O=C1NC(=O)C(c2cccc([N+](=O)[O-])c2)=C1Nc1cc(Cl)c(O)c(Cl)c1, the “activity change, negative = inhibition” value was inactive: 46.5%.
In the case of O=C1NC(=O)c2c1c(-c1ccccc1)cc1[nH]c3ccc(O)cc3c21, the Potency is reported as active: 3.16 µM.
For O=C(O)c1ccc(Oc2nccc(-c3c(-c4ccc(F)cc4)ncn3C3CCNCC3)n2)cc1, the “activity change, negative = inhibition” value was inactive: -9.77%.
